The values that follow come from the supplement of paper PMC11098740.

Counter-ions that a name gives are not always drawn. This is one part of the list. Many values rest on one well or one pass, so single values are uncertain.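 The assay uses a mixed pool of 41 HAP1 clones in which 61 cancer-associated proteins bear intron-inserted fluorescent tags, and clones are distinguished by image pattern. Results are compared against DMSO-treated control wells, and the BRD4 degrader dBET6 is the positive control.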

In the test the target is BRD4 (intron 10 mScarlet tag, HAP1) (UniProt O60885). As to the kind of experiment: BRD4 median nuclear fluorescence intensity change vs DMSO (log2 fold change); higher = more BRD4 protein. Particulars: 6 h.
For the molecule `CC1(C)CNc2cc(NC(=O)c3cccnc3NCc3ccncc3)ccc21` [motesanib] (10 µM), the “BRD4 median nuclear fluorescence intensity change (log2)” value was 0.00859.

As for `CS(=O)(=O)CCNCc1ccc(-c2ccc3ncnc(Nc4ccc(OCc5cccc(F)c5)c(Cl)c4)c3c2)o1` [lapatinib] (20 µM), the “BRD4 median nuclear fluorescence intensity change (log2)” value came out at 0.0502.

As for `CCC1(c2ccccc2)NC(=O)N(C)C1=O` (centres undefined) [mephenytoin] (10 µM), the “BRD4 median nuclear fluorescence intensity change (log2)” value stood at 0.0439.

As for `CC12CC3CC(C)(C1)CC(N)(C3)C2` [memantine] (9.99939 µM), the “BRD4 median nuclear fluorescence intensity change (log2)” value is 0.0548.

As to `CN1C(=O)CC(c2ccccc2)C1=O` (centres undefined) [phensuximide] (10 µM), the “BRD4 median nuclear fluorescence intensity change (log2)” value amounted to 0.0743.

For the molecule `Cc1nnc(C(C)C)n1C1C[C@H]2CC[C@@H](C1)N2CC[C@H](NC(=O)C1CCC(F)(F)CC1)c1ccccc1` (stereo in doubt) [maraviroc] (10 µM), the “BRD4 median nuclear fluorescence intensity change (log2)” value came out at 0.0405.

As to `O=C(Nc1ccc([N+](=O)[O-])cc1Cl)c1cc(Cl)ccc1O` [niclosamide] (9.99966 µM), the “BRD4 median nuclear fluorescence intensity change (log2)” value turned out to be 0.036.

In the case of `CC1=NN(c2ccc(C)c(C)c2)C(=O)/C1=N\Nc1cccc(-c2cccc(C(=O)O)c2)c1O` [eltrombopag] (10 µM), the “BRD4 median nuclear fluorescence intensity change (log2)” value was -0.00732.

Consider `OC(CCN1CCCCC1)(c1ccccc1)C1CCCCC1` (centres undefined) [trihexyphenidyl] (10.00006277 µM), for which the “BRD4 median nuclear fluorescence intensity change (log2)” value stood at 0.0534.

For `CC1(C)NC(=O)N(c2ccc([N+](=O)[O-])c(C(F)(F)F)c2)C1=O` [nilutamide] (20 µM), the “BRD4 median nuclear fluorescence intensity change (log2)” value was found to be 0.0336.

As to `CC[C@]1(O)C[C@H]2CN(CCc3c([nH]c4ccccc34)[C@@](C(=O)OC)(c3cc4c(cc3OC)N(C=O)[C@H]3[C@@](O)(C(=O)OC)[C@H](OC(C)=O)[C@]5(CC)C=CCN6CC[C@]43[C@@H]65)C2)C1` [vincristine] (0.246914 µM), the “BRD4 median nuclear fluorescence intensity change (log2)” value came out at 0.0571.

As to `NC(=O)NO` [hydroxyurea] (20 µM), the “BRD4 median nuclear fluorescence intensity change (log2)” value was 0.071.

In the case of `O=C1CN(/N=C/c2ccc(-c3ccc([N+](=O)[O-])cc3)o2)C(=O)N1` [dantrolene] (10 µM), the “BRD4 median nuclear fluorescence intensity change (log2)” value came to 0.082.

With `Nc1ccn([C@H]2CC[C@@H](CO)O2)c(=O)n1` [zalcitabine] (9.9996931 µM), the “BRD4 median nuclear fluorescence intensity change (log2)” value was -0.00781.

For `CC(=O)NO` [acetohydroxamic acid] (10 µM), the “BRD4 median nuclear fluorescence intensity change (log2)” value stood at 0.171.

Turning to `C[N+]1(CCCCC[N+]2(C)CCCC2)CCCC1` [pentolinium tartrate] (10 µM), the “BRD4 median nuclear fluorescence intensity change (log2)” value amounted to 0.146.

Take `NS(=O)(=O)c1cc(Cl)c(Cl)c(S(N)(=O)=O)c1` [dichlorphenamide] (10 µM): the “BRD4 median nuclear fluorescence intensity change (log2)” value came to 0.0335.

As to `Cc1nc(=O)c2cc(CN(C)c3ccc(C(=O)N[C@@H](CCC(=O)O)C(=O)O)s3)ccc2[nH]1` [raltitrexed] (20 µM), the “BRD4 median nuclear fluorescence intensity change (log2)” value stood at 0.0928.

On to `COc1cc(C)c(/C=C/C(C)=C/C=C/C(C)=C/C(=O)O)c(C)c1C` [acitretin] (9.99941 µM), for which the “BRD4 median nuclear fluorescence intensity change (log2)” value was -0.0624.

`O=C1C(O)=C([C@H]2CC[C@H](c3ccc(Cl)cc3)CC2)C(=O)c2ccccc21` [atovaquone] (10 µM): the “BRD4 median nuclear fluorescence intensity change (log2)” value is 0.0321.

For the molecule `CC(=O)c1c(C)c2cnc(Nc3ccc(N4CCNCC4)cn3)nc2n(C2CCCC2)c1=O` [palbociclib] (10 µM), the “BRD4 median nuclear fluorescence intensity change (log2)” value was 0.142.

Consider `Cc1nnc(C(=O)NC(C)(C)c2nc(C(=O)NCc3ccc(F)cc3)c(O)c(=O)n2C)o1` [raltegravir] (10 µM), for which the “BRD4 median nuclear fluorescence intensity change (log2)” value worked out at 0.103.

Turning to `COc1cc(C(=O)O)ccc1NC(=O)[C@@H]1N[C@@H](CC(C)(C)C)[C@](C#N)(c2ccc(Cl)cc2F)[C@H]1c1cccc(Cl)c1F` [idasanutlin] (20 µM), the “BRD4 median nuclear fluorescence intensity change (log2)” value was 0.05.

For the molecule `NC[C@@H]1O[C@H](O[C@H]2[C@@H](O)[C@H](O[C@@H]3[C@@H](O)[C@H](N)C[C@H](N)[C@H]3O[C@H]3O[C@H](CO)[C@@H](O)[C@H](O)[C@H]3N)O[C@@H]2CO)[C@H](N)[C@@H](O)[C@@H]1O` [paromomycin] (10 µM), the “BRD4 median nuclear fluorescence intensity change (log2)” value came out at 0.0368.

For `CN[C@H]1CC[C@@H](c2ccc(Cl)c(Cl)c2)c2ccccc21` [sertraline] (9.99956 µM), the “BRD4 median nuclear fluorescence intensity change (log2)” value came to 0.04.

With `CC(C)NCC(O)COc1ccc(CC(N)=O)cc1` (centres undefined) [atenolol] (10 µM), the “BRD4 median nuclear fluorescence intensity change (log2)” value came to 0.1.

In the case of `C#CCN(C)Cc1ccccc1` [pargyline] (10.0004 µM), the “BRD4 median nuclear fluorescence intensity change (log2)” value is 0.0792.

Take `NC(=O)c1ncn([C@@H]2O[C@H](CO)[C@@H](O)[C@H]2O)n1` [ribavirin] (10 µM): the “BRD4 median nuclear fluorescence intensity change (log2)” value is 0.0175.

For `COc1cc2c(Oc3ccc4[nH]c(C)cc4c3F)ncnc2cc1OCCCN1CCCC1` [cediranib] (10 µM), the “BRD4 median nuclear fluorescence intensity change (log2)” value was determined as 0.102.

As for `CCCc1nn(C)c2c(=O)[nH]c(-c3cc(S(=O)(=O)N4CCN(C)CC4)ccc3OCC)nc12` [sildenafil] (9.999439551 µM), the “BRD4 median nuclear fluorescence intensity change (log2)” value came out at 0.00568.

As for `CNC(=O)c1cc(Oc2ccc(NC(=O)Nc3ccc(Cl)c(C(F)(F)F)c3)cc2)ccn1` [sorafenib] (12.21 µM), the “BRD4 median nuclear fluorescence intensity change (log2)” value was -0.0403.

Regarding `N[C@@H](CCC(=O)N[C@@H](CSN=O)C(=O)NCC(=O)O)C(=O)O` [nitrosoglutathione] (10 µM), the “BRD4 median nuclear fluorescence intensity change (log2)” value amounted to 0.0217.

Consider `COc1ccc2c3c1O[C@H]1C[C@@H](O)C=C[C@@]31CCN(C)C2` [galantamine] (10 µM), for which the “BRD4 median nuclear fluorescence intensity change (log2)” value was found to be 0.0662.

Consider `CC[C@]1(O)C[C@@H]2CN(CCc3c([nH]c4ccccc34)[C@@](C(=O)OC)(c3cc4c(cc3OC)N(C)[C@H]3[C@@](O)(C(=O)OC)[C@H](OC(C)=O)[C@]5(CC)C=CCN6CC[C@]43[C@@H]65)C2)C1` [vinblastine sulfate] (0.73008 µM), for which the “BRD4 median nuclear fluorescence intensity change (log2)” value was 0.0684.

For `CNC(=O)c1cc(Oc2ccc(NC(=O)Nc3ccc(Cl)c(C(F)(F)F)c3)c(F)c2)ccn1` [regorafenib] (20 µM), the “BRD4 median nuclear fluorescence intensity change (log2)” value was 0.0492.

For the molecule `Cc1ncc([N+](=O)[O-])n1CCO` [metronidazole] (10 µM), the “BRD4 median nuclear fluorescence intensity change (log2)” value was -0.0336.

Turning to `C/C(O)=C(\C#N)C(=O)Nc1ccc(C(F)(F)F)cc1` [teriflunomide (a77 1726)] (10 µM), the “BRD4 median nuclear fluorescence intensity change (log2)” value came to 0.114.

`Clc1ccc(C(c2ccccc2Cl)C(Cl)Cl)cc1` (centres undefined) [mitotane] (10 µM): the “BRD4 median nuclear fluorescence intensity change (log2)” value is -0.0195.

`C[C@@H](Oc1cc(-c2cnn(C3CCNCC3)c2)cnc1N)c1c(Cl)ccc(F)c1Cl` [crizotinib] (20 µM): the “BRD4 median nuclear fluorescence intensity change (log2)” value was 0.0293.
